Assay results reported in PubChem BioAssay AID1347076 (National Center for Advancing Translational Sciences (NCATS), 2019).
The campaign covered roughly 400,000 compounds. About 13,000 (3.2%) were called active. This list was built around the results that the source calls inconclusive (neither active nor inactive); the mix of calls is not that of the screen. Calls come from the whole dose curve; as a rule, active = well fitted cell-killing curve with a large enough effect; inconclusive = small, poorly fitted or top-dose-only effect, or effect the other way; inactive = flat fitted curve, though single readings scatter. Potencies beside an inconclusive call are fits to weak or partial responses and may not hold up.
% is set by controls: 0 for no effect and ±100 for the full control effect; potency is the fitted concentration of half-maximal effect.

Assay: qHTS assay for MDR1-selective chemotherapeutics: Primary screen using the drug-selected MDR subline cells KB-V1; note: nearly all actives have a fitted effect of over 60% in size
Details: KB-V1 MDR cells viability, CellTiter-Glo, 72 h; activity change, negative = cytotoxicity: at 46.1 µM (top of the series)
Outline: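 Drug-selected KB-V1 cells, grown in DMEM lacking phenol red with 10% FBS, receive compound titrations; after three days at 37 degrees C, surviving cell ATP is quantified by CellTiter-Glo luminescence and responses normalized and curve-fitted.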
With COc1ccc(/C=C2/CSC/C(=C/c3ccc(OC)c(OC)c3)C2=O)cc1OC the Potency was active: 1.46 µM.
In the case of O=[N+]([O-])c1nn(-c2ccc3c(c2)OCCO3)n(O)c1=Nc1ccccc1, the Potency is reported as inconclusive: 29.1 µM [cytotoxic, single point].
With C=CCn1c(C)nnc1SCC(=O)Nc1ccccc1C(=O)NC1CC1 the Potency was inconclusive: 29.1 µM [rising, single point].
For CC(=O)N1CCN(CCN=CC2=C(O)CC(c3cccs3)CC2=O)CC1 (centres undefined), the Potency was inconclusive: 20.6 µM [rising, partial curve, poor fit].
With O=C1N(Cc2ccccc2Cl)c2ccccc2C1(O)c1c[nH]c2ccccc12 (centres undefined) the Potency was inconclusive: 29.1 µM [cytotoxic, single point].
For CC1=C(C(=O)OCC2CCCCC2)C(c2ccc(Cl)cc2)CC(=O)N1 (centres undefined), the Potency was inconclusive: 29.1 µM [cytotoxic, single point].
With COC(=O)c1[nH]cnc1C(=O)c1ccccc1 the “activity change, negative = cytotoxicity” value was inactive: 0.777%.
For CCOCCOC(=O)c1ccc(NC(=O)c2cc(OC)c(OC)c(OC)c2Br)cc1, the Potency was inconclusive: 8.2 µM [cytotoxic, partial curve].
For Cc1ccc(C)c(N(CC(=O)Nc2ccc(-c3nc4ccc(C)cc4s3)cc2)S(C)(=O)=O)c1, the Potency was inconclusive: 5.8 µM [cytotoxic, partial curve].
In the case of COc1cccc(NC(=O)NC2CCCc3ccccc32)c1 (centres undefined), the Potency is reported as inconclusive: 29.1 µM [cytotoxic, single point].
For CCOC(=O)c1ccc(-c2ccc(C(=O)Nc3cccnc3)o2)cc1, the “activity change, negative = cytotoxicity” value was inactive: -20.6%.
In the case of CC1CCN(C(=O)CCN2C(=O)/C(=C/c3cccs3)SC2=S)CC1, the Potency is reported as inconclusive: 18.4 µM [cytotoxic, single point].
In the case of Cc1cc2c(cc1C)NC(c1ccccn1)C1=C(CC(C)(C)CC1=O)N2 (centres undefined), the “activity change, negative = cytotoxicity” value is reported as inactive: -1.56%.
For O=[N+]([O-])c1ccc(CS(=O)c2ccccc2)cc1 (centres undefined), the Potency was inconclusive: 20.6 µM [cytotoxic, single point].
For COc1ccc(-c2cn3cccc(C)c3n2)cc1F, the Potency was inconclusive: 23.1 µM [cytotoxic, single point].
With CC(C)(C)C1C=C(Sc2ccccc2)C(=O)O1 (centres undefined) the “activity change, negative = cytotoxicity” value was inactive: -17.9%.
In the case of Cc1ccc(CSc2nnc(-c3cccnc3)n2N)cc1, the “activity change, negative = cytotoxicity” value is reported as inactive: -1.38%.
For O=C(NNC(=O)c1ccc(-c2ccccc2)cc1)Nc1ccc(F)cc1F, the Potency was inconclusive: 11.6 µM [rising, partial curve, poor fit].
In the case of COc1ccc(C(=O)NCC(=O)OCC(=O)N2CCN(S(=O)(=O)c3ccccc3)CC2)cc1, the Potency is reported as inconclusive: 32.6 µM [rising, single point].
For C=CCc1c(C)nc(-c2ccccc2)nc1Nc1ccc(O)cc1, the Potency was active: 13 µM.
With CC(=NNC1=NCCN1)c1cn(C2=NCCN2)nc1C the “activity change, negative = cytotoxicity” value was inactive: 2.85%.
In the case of CCN(CC)CCn1c(NC(=O)c2ccccc2O)nc2ccccc21, the Potency is reported as inconclusive: 20.6 µM [cytotoxic, single point].
For O=C(CSc1ncnc2c1oc1ccccc12)Nc1nccs1, the Potency was inconclusive: 18.4 µM [rising, single point].
For CC1CN(c2nc(Nc3ccccc3)nc(N)c2[N+](=O)[O-])CC(C)O1 (centres undefined), the “activity change, negative = cytotoxicity” value was inactive: -8.14%.
For Cc1cc(C)n2nc(SCCCC(=O)c3ccc(F)cc3)nc2n1, the Potency was inconclusive: 20.6 µM [cytotoxic, partial curve].
In the case of CC(=O)c1ccc(NS(=O)(=O)c2c(C)nc3scc(C)n3c2=O)cc1, the “activity change, negative = cytotoxicity” value is reported as inactive: -10.3%.
With NC(=O)COc1ccc(/C=C2\C(=O)ON=C2c2ccccc2)cc1 the Potency was inconclusive: 32.6 µM [cytotoxic, single point].
For CC1CCN(S(=O)(=O)N2CCC(C(=O)NC3CCCC3)CC2)CC1, the Potency was inconclusive: 23.1 µM [cytotoxic, single point].
For CN(c1ccccc1)S(=O)(=O)c1cccc(NC(=O)CCN2C(=O)C3CCCCC3C2=O)c1 (centres undefined), the Potency was inconclusive: 23.1 µM [cytotoxic, single point].
For Cc1ccc(C(=O)NC(=S)N2CC(C)OC(C)C2)cc1[N+](=O)[O-] (centres undefined), the Potency was inconclusive: 23.1 µM [cytotoxic, single point].
With COc1ccc(Cl)cc1NC(=O)N(C)CCc1c(C)nn(C)c1C the “activity change, negative = cytotoxicity” value was inactive: -0.868%.
For Cn1c(=O)oc2cc(S(=O)(=O)N3CCc4ccccc43)ccc21, the Potency was inconclusive: 13 µM [cytotoxic, partial curve].
With C=CC[C@H](CC(=O)N(CCO)Cc1ccccc1)C(=O)NC[C@@H](OC(=O)[C@@H](CC=C)Cc1ccc(F)cc1)c1ccccc1 the Potency was inconclusive: 29.1 µM [cytotoxic, single point].
With O=C1Nc2ccc(Br)cc2C1(O)c1ccccc1 (centres undefined) the “activity change, negative = cytotoxicity” value was inactive: -2.26%.
With Cc1cccc(NC2=C/C(=N/S(=O)(=O)c3cccs3)c3ccccc3C2=O)c1 the Potency was inconclusive: 4.11 µM [cytotoxic, full curve].
In the case of COc1ccc(OC)c(NC(=O)CN2C(=O)CC(C)Sc3ccccc32)c1 (centres undefined), the Potency is reported as inconclusive: 10.3 µM [cytotoxic, partial curve].
With CCN1CCN(c2ccc(S(=O)(=O)N3CCCCC3)cc2NC(=O)c2sccc2C)CC1 the Potency was inconclusive: 3.66 µM [cytotoxic, partial curve, poor fit].
For CCOc1ccc(S(=O)(=O)N(C)c2ccc(OCC(=O)NCC3CCCO3)cc2)cc1 (centres undefined), the Potency was inconclusive: 10.3 µM [cytotoxic, partial curve].
With O=C(COc1ccccc1)NNC(=O)COc1ccc([N+](=O)[O-])cc1 the “activity change, negative = cytotoxicity” value was inactive: 1.53%.
For COC(=O)[C@@]1(Cc2ccc(F)cc2)[C@H]2c3cc(C(=O)N(C)C)n(CCCNc4ncc(C(F)(F)F)cc4Cl)c3C[C@H]2CN1C(=O)c1ccccc1, the Potency was active: 18.4 µM.
In the case of Cc1cc(C)cc(NC(=S)N(CCN(C)C)Cc2cccs2)c1, the Potency is reported as inconclusive: 18.4 µM [cytotoxic, single point].
With CCOc1cc(-c2nnc(NC(=O)C3=COCCO3)o2)cc(OCC)c1OCC the Potency was inconclusive: 6.51 µM [cytotoxic, partial curve].
For CCc1c(C)sc2nc3c(C(=O)N4CCOCC4)cc(C(=O)c4cc(F)ccc4O)cn3c(=O)c12, the “activity change, negative = cytotoxicity” value was inactive: 13.3%.
In the case of COc1cc(O)c(C(CCN2CCCC(C)C2)c2ccc3c(c2)OCO3)c(OC)c1 (centres undefined), the “activity change, negative = cytotoxicity” value is reported as inactive: -0.187%.
In the case of Cc1cc2c3c(c1)C1(C(=O)N3C(C)(C)CC2C)C(C#N)=C(N)Oc2n[nH]c(C)c21 (centres undefined), the “activity change, negative = cytotoxicity” value is reported as inactive: -21.6%.
With O=S(=O)(Nc1ccc2c(c1)OCO2)c1ccccc1 the Potency was inconclusive: 20.6 µM [cytotoxic, single point].
In the case of CC(C)CNC(=S)N1CCC(c2nc(-c3ccc(F)cc3)no2)CC1, the Potency is reported as inconclusive: 7.31 µM [cytotoxic, partial curve].
For Cc1nonc1OCCN1CCN(c2ccccc2[N+](=O)[O-])CC1, the Potency was inconclusive: 11.6 µM [cytotoxic, partial curve, poor fit].
In the case of O=C(C1CC(=O)N(c2ccccc2)C1)N1CCN(c2ccccc2F)CC1 (centres undefined), the Potency is reported as inconclusive: 20.6 µM [cytotoxic, single point].
In the case of O=C(CNC(=O)c1ccc(Br)cc1)N/N=C/c1ccc[nH]1, the “activity change, negative = cytotoxicity” value is reported as inactive: 2.03%.
For CC(C)OCCCNC(=O)c1ccc(C2SCC(=O)N2Cc2ccco2)cc1 (centres undefined), the Potency was inconclusive: 29.1 µM [cytotoxic, single point].
For CC(=O)N1c2ccccc2N=C(c2ccc3c(c2)OCO3)C1C(=O)NCc1ccccc1 (centres undefined), the Potency was inconclusive: 5.8 µM [cytotoxic, partial curve].
In the case of CC(C)(C)OC(=O)NCCC(=O)N/N=C/c1cccc2nccnc12, the “activity change, negative = cytotoxicity” value is reported as inactive: -9.85%.
In the case of COc1ccc(CNC(=O)Cn2ccc3cc(S(=O)(=O)N4CCCCC4)ccc32)cc1OC, the “activity change, negative = cytotoxicity” value is reported as inactive: 16.5%.
In the case of CN1CCC(=O)N([C@H](CSc2ccc(Br)cc2)Cc2ccccc2)CC1, the Potency is reported as inconclusive: 8.2 µM [cytotoxic, partial curve, poor fit].
With COc1ccc(OC)c(C2CC(c3ccccc3)=NN2C(=S)Nc2ccccc2)c1 (centres undefined) the “activity change, negative = cytotoxicity” value was inactive: -6.73%.
With CCn1c2c(c3cc(Cl)ccc31)CCCC2=O the Potency was inconclusive: 18.4 µM [cytotoxic, single point].
With Cc1[nH]c2ccccc2c1/C=N/Nc1ccc([N+](=O)[O-])cc1S(=O)(=O)Nc1ccc(Cl)cc1 the Potency was inconclusive: 18.4 µM [cytotoxic, single point].
In the case of CCCCOCCCNC(=O)c1c(-c2ccccc2)noc1C, the Potency is reported as inconclusive: 0.013 µM [rising, full curve].
With CSc1nc2nc(C)c(C/C=C/c3ccccc3)c(=O)n2[nH]1 the “activity change, negative = cytotoxicity” value was inactive: 4.16%.
For COc1ccc(-c2cc(C)nc(SCC(=O)c3cccc([N+](=O)[O-])c3)n2)cc1, the “activity change, negative = cytotoxicity” value was inactive: -4.6%.
With COc1cccc(-n2c(-c3ccc4[nH]c(C)c(C)c4c3)n[nH]c2=S)c1 the Potency was inconclusive: 29.1 µM [cytotoxic, single point].
For Brc1ccc(-c2cnnc(N3CCCC3)n2)cc1, the Potency was inconclusive: 18.4 µM [cytotoxic, single point].
In the case of CCOC(=O)C1(CCOc2ccccc2)CCN(Cc2cc(OC)cc(OC)c2)CC1, the Potency is reported as inconclusive: 29.1 µM [cytotoxic, single point].
In the case of Cc1ccc(C(=O)NNC(=O)CCCCC(=O)NNC(=O)c2ccc(C)cc2)cc1, the Potency is reported as inconclusive: 20.6 µM [rising, partial curve].
In the case of S=C(NCCCc1cnc[nH]1)NCCCN(Cc1ccc(Cl)c(Cl)c1)c1ccc(Br)cn1, the Potency is reported as inconclusive: 32.6 µM [cytotoxic, single point].
In the case of COc1ccccc1-c1cc(C(=O)Nc2c(F)cc(F)cc2Br)no1, the Potency is reported as inconclusive: 6.51 µM [cytotoxic, partial curve].
For CCOCc1cc(CN2CCC(CCC(=O)NC3CC3)CC2)ccc1OC, the “activity change, negative = cytotoxicity” value was inactive: 21%.
In the case of Cc1ccc(F)cc1NC(=O)C12CC3CC(C1)CC(n1cnc([N+](=O)[O-])n1)(C3)C2, the Potency is reported as inconclusive: 9.2 µM [cytotoxic, partial curve].
